## Percent effect of library compounds

Protein sequences, listed by entry. Tags and fused reporters are not part of them. Residues count along the entry.
UniProt Q8IDJ8, 1-583: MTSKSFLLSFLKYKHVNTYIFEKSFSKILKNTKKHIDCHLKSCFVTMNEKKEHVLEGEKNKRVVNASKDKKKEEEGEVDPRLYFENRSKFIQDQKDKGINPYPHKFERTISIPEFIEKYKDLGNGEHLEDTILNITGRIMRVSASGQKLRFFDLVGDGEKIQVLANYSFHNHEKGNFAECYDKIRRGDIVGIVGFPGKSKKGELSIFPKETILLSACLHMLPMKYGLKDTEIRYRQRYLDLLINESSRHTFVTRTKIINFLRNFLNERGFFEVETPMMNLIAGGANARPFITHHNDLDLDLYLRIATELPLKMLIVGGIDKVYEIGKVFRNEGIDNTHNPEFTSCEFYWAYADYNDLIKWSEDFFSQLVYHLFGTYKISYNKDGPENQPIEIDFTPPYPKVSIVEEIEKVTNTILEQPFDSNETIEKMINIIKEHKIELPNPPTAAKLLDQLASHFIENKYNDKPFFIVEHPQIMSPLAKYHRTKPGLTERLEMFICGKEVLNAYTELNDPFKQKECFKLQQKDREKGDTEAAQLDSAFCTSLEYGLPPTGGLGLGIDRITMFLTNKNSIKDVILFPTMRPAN
UniProt Q4DA54, 1-478: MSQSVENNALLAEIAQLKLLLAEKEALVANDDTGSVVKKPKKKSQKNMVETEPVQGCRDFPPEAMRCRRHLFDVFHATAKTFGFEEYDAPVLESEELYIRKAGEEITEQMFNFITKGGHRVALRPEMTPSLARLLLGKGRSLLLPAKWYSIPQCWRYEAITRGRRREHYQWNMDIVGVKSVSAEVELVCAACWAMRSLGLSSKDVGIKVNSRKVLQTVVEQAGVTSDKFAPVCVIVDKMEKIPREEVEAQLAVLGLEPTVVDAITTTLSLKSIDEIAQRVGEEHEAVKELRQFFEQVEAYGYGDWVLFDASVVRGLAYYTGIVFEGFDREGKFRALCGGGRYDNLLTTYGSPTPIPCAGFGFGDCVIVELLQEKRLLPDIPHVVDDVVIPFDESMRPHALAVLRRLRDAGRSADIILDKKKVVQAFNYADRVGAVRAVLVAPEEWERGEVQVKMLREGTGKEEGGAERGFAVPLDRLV
UniProt I6X8D2, whole entry: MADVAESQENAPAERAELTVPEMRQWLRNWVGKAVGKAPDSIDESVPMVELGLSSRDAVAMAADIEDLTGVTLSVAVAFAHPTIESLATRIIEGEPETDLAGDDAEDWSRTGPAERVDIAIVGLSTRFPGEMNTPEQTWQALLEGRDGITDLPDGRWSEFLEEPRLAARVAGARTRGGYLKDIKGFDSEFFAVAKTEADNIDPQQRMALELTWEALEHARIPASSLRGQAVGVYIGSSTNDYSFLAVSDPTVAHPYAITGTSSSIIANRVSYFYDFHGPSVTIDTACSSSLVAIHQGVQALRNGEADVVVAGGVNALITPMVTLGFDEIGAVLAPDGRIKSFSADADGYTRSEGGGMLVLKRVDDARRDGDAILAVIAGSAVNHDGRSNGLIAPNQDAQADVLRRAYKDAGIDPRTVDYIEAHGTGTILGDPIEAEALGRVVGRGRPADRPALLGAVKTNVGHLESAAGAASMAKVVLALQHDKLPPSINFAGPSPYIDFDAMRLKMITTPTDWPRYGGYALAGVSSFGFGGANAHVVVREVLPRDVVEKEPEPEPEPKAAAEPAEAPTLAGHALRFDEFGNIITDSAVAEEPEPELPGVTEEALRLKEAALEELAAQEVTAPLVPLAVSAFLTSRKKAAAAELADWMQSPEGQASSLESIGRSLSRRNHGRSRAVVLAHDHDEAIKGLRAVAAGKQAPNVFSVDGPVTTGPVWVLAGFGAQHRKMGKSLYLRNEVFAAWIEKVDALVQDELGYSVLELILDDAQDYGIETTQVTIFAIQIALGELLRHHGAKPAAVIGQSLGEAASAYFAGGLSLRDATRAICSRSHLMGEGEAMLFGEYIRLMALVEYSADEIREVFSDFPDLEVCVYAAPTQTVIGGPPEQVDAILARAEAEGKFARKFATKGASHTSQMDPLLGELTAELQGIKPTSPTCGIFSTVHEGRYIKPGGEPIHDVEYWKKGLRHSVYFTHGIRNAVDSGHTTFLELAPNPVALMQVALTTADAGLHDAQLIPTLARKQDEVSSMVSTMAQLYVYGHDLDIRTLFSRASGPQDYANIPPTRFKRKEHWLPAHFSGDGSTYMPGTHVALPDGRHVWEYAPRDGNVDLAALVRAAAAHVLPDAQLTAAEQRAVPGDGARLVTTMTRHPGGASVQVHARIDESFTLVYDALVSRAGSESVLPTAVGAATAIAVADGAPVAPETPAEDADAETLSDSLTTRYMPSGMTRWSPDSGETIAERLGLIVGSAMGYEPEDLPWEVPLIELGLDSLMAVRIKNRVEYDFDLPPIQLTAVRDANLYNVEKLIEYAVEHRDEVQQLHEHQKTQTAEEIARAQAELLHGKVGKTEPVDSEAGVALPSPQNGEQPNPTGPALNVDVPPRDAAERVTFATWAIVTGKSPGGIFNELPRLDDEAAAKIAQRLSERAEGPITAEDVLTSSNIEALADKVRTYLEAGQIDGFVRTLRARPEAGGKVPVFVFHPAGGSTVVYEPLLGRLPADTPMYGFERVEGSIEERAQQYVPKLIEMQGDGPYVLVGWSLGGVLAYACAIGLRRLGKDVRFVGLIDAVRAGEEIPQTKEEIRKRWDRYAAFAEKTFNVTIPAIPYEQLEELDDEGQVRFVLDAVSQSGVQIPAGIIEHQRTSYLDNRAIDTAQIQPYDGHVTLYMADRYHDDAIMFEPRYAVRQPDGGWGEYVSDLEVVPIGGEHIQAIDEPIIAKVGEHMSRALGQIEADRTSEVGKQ

Source: ChEMBL document CHEMBL3988442, “University of Dundee, Small-Polar-MMV Screening Library” (2021).

PfKRS1: 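Enzyme assay of the cytosolic lysyl-tRNA synthetase in 384-well plates, read by luminescence. Target: Lysine-tRNA ligase, Plasmodium falciparum 3D7 (UniProt Q8IDJ8). Concentration: 30 µM. Higher reads as stronger inhibition, judged from the few compounds that gave an IC50. Of about 69,000 compounds tested this way, about 49 (0.071%) reached 50% or more in at least one test.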
TcHisRS: 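Enzyme assay of histidyl-tRNA synthetase; the read-out is not stated. Target: Histidine-tRNA ligase, Trypanosoma cruzi CL Brener (UniProt Q4DA54). Tested at 30 µM. The record gives no direction; compounds that gave an IC50 in retests scored well above the rest, so higher reads as stronger inhibition. Size under these conditions: about 69,000 compounds, about 31 of them at 50% or above in at least one test.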
Leishmania in macrophages: 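Cell assay of Leishmania donovani living inside macrophages; the read-out is not stated. Concentration: 30 µM. Higher reads as stronger inhibition (inferred: compounds with an IC50 in retests scored well above the rest). About 69,000 compounds were tested under these conditions; 1.5% (about 1,000) showed 50% or more at least once.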
Pks13 thioesterase: 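Polyketide synthase Pks13, Mycobacterium tuberculosis (UniProt I6X8D2). Enzyme assay of the thioesterase domain of polyketide synthase 13; the read-out is not stated. Compounds at 30 µM. The record gives no direction; the compounds picked for IC50 retests had high values, so higher reads as stronger inhibition. Of about 67,000 compounds tested this way, about 300 (0.46%) reached 50% or more in at least one test.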

Results are given as percent effect.
How 0% and 100% were set is not recorded. Most values in the screen are low, and negative values occur.
Compounds were drawn at random from those tested, without regard to their results.
Two or more numbers in one place are separate tests of the same structure; such repeats can differ widely.
A dash means the value is not listed here; it may have been measured.

compound,PfKRS1,TcHisRS,Leishmania in macrophages,Pks13 thioesterase
CCO[C@H]1CN(C(=O)c2ccnnc2)[C@@H]2COC[C@H]12,1.854,5.785,-,-5.763
CC1CCN(CCNC(=O)c2ccn(-c3ccc(F)cc3)n2)CC1,-1.292,3.779,-0.6554,-9.923
O=C(O)C(F)(F)F.[H][C@@]12C[C@@H](c3nc(C)no3)O[C@]1([H])CN(Cc1cc(C)on1)C2,-,-,24.36,-
O=C(NCc1csc(Br)c1)c1ccncc1,37.24,1.128,28.11,-11.51
CC[C@@]1(O)CCN(C(=O)c2ccc(SC)cc2)C[C@H]1O,2.756,2.439,11.25,-1.637
Cc1ccc(C)c(NC(=O)N2C[C@H](N(C)C)C[C@H]2CO)c1,5.697,3.863,26.92,-0.8841
Cc1cc(N(C)Cc2ccsc2)n2nc(C)c(C)c2n1,1.398,3.96,15.77,-43.75
Cc1nc(C)n(C2CCCN(C(=O)c3cccc4[nH]ncc34)C2)n1 (centres undefined),-1.495,-0.8403,-18.39,0.1914
C/C=C(\C)CN1C[C@H](NC(=O)c2cc[nH]c2C)[C@@H](C2CC2)C1,1.57,17.24,-8.43,-20.04
Cc1nn(C)c(C)c1CN(Cc1cccn1-c1ncccn1)C(C)C,1.132,4.972,16.21,-1.419
O=C(c1cncnc1)N1Cc2ccccc2OC2(CCOCC2)C1,2.081,7.463,6.479 and -6.538,9.879
[H][C@]12CCN(S(=O)(=O)Cc3ccccc3)[C@@]1([H])CC[C@H](COC)O2,-,-,8.29,-
NC(=O)CN1CCCN(C(=O)Cc2cccc(C(F)(F)F)c2)CC1,0.2079,1.13,-3.265,-26.04
CCc1nc(C2CCCN2CCS(=O)(=O)c2ccccc2)no1 (centres undefined),-0.2343,3.226,18.83,-16.06
Cc1nn(C)c(C)c1NC(=O)CCn1ncc2ccc(Cl)cc21,2.123,-2.609,28.79,-11.65
CNc1ncc(CN2CCC(c3nnsc3S(C)(=O)=O)CC2)cn1,4.907,10,38.85 and 19.65,12.19
c1cnc2[nH]nc(C3CCN(Cc4ccsc4)CC3)c2c1,0.1551,2.128,-,4.568
O=C(c1ccc(Cl)cc1-n1cnnn1)N1CCC2(CC1)OCCO2,6.043,4.969,7.136,-5.126
O=C(O)C(F)(F)F.O=C(O)C(F)(F)F.c1csc(CN2CCCC3(COCCN(Cc4c[nH]nn4)C3)C2)c1 (centres undefined),-,-,14.23,-
Cn1cc(-c2nc3c(cc2C(=O)O)CCN(C(=O)C2CC2)CC3)cn1,4.182,0,-,-12.29
Cc1cc(NCCO)nc(N2CCCC2)c1C#N,2.62,7.317,15.66,-6.443
Cc1nc(CN2C[C@@H]3CN(C(=O)C4CC4)C[C@@H]3C2=O)cs1,0.2678,4.972,-,-12.91
CN1C[C@@H](NC(=O)C(C)(C)C)C[C@H]1C(=O)NCc1ncc[nH]1,5.416,-1.622,3.83,-36.31
CN(C)S(=O)(=O)N1CCC[C@]2(C[C@@H](Oc3ncccc3F)CO2)C1,6.239,5.785,-,0.4123
Cc1cc(OC(F)F)c(C(=O)N2CCC(N(C)C)CC2)s1,-4.303,0,-9.364,-7.899
CC(c1cccc(-c2cn(Cc3ccoc3)nn2)c1)N(C)C (centres undefined),1.268,-1.117,3.831,-10.81
COCC1CN(Cc2ccncc2)Cc2nn(CC3CC3)cc21.O=C(O)C(F)(F)F.O=C(O)C(F)(F)F (centres undefined),-,-,15.78,-
CNC(=O)Cc1ccc(NC(=O)NC2(c3cccc(F)c3)CC2)cc1,6.181,8.333,15.99,-17.07
Cc1cnc(N2CCOC3(CCCN(CC(=O)N(C)C)C3)C2)nc1.O=C(O)C(F)(F)F.O=C(O)C(F)(F)F (centres undefined),-,-,13.85,-
CC(C)(C)n1nc(C(=O)NCC2(C(N)=O)CCOCC2)cc1C1CC1,3.232,4.938,25.32,-6.783
Cc1noc(C)c1CNCC1COCc2c(-c3ccoc3)nnn2C1 (centres undefined),3.742,5.747,-,-11.68
COc1ccccc1NC(=O)NCc1cn[nH]c1,-0.1261,0,-23.18,3.445
Cc1cc(NC(=O)NCC2CCN(C(C)C)C2)no1 (centres undefined),1.08,6.78,20.2,-2.818
Cc1nccnc1N1Cc2cnn(Cc3ccc(F)cc3)c2C1,2.714,12.29,3.934,-21.47
CNC(=O)C1CCN(C(=O)c2cccn2Cc2cccs2)CC1,1.472,-0.7634,-13.19,-1.356
CN(C)C(=O)CN1CCN(c2ncccn2)[C@@H]2CS(=O)(=O)C[C@@H]21,2.499,0.5405,-,-12.78
CC(C)N(C)C(=O)Cn1ncc(N(C)CCc2ccccc2)cc1=O,0.6711,5.759,31.38,-26.3
COC(=O)N1CCCN(C(=O)c2cccc3cccnc23)CC1,13.57,-0.8403,2.345,-12.43
O=C(O)C(F)(F)F.[H][C@@]12CCC(=O)N(c3cnn(C)c3)[C@]1([H])CCN2Cc1nccs1,-,-,6.709,-
O=C1Nc2ccccc2C12CCN(Cc1cccs1)CC2,4.116,6.796,-,-22.53
OCCC1CN(c2ncnc3[nH]cnc23)CCN1Cc1ccccc1F (centres undefined),-0.229,10,36.65,36.37
CSCCC(C)(O)CNS(=O)(=O)Cc1ccc(F)cc1 (centres undefined),0.4248,10.1,-8.156,0.03561
O=C(CCc1nc(Cl)n[nH]1)N1CCC2(CCCN(CC3CCC3)C2=O)C1 (centres undefined),-0.0709,-7.143,-3.902,2.847
NC(=O)NCC1CCCCN1C(=O)c1cccc(C(F)(F)F)c1 (centres undefined),-0.5506,2.273,4.422,-16.34
COCCCN(Cc1ccccn1)Cc1ccnn1C1CCCCO1 (centres undefined),-1.616,2.326,-,4.167
O=C(O)C(F)(F)F.[H][C@@]12CCN(Cc3ccc4c(c3)OCO4)C[C@]1([H])O[C@@H](C(=O)NCC1CC1)C2,-,-,29.56,-
Cc1nnc2n1CCN(Cc1csc(-c3ccc(F)cc3)n1)C2,0.7723,-1.149,22.54,-5.711
O=C(c1ccncc1F)N1CCc2ncnc(-c3ccncc3)c2CC1,-4.832,7.182,-55.07,-30.77
Cn1cnnc1-c1cncc(NCc2cccc3c2OCO3)c1,5.4,-0.9804,13.61,-8.069
Cc1cc(C[C@@H]2CCC[C@H]2NCc2c[nH]nc2-c2ccccc2)on1.O=C(O)CC(O)(CC(=O)O)C(=O)O,-,-,2.225 and -0.7853,-
CN(Cc1ccsc1)C(=O)c1ccc2c(c1)NC(=O)CO2,-1.137,5.917,15.14,-6.723
[H][C@@]12C[C@H](C(=O)N3CCCC3)[C@@]([H])(CN(C(=O)Nc3ccc(CC)cc3)C1)O2,-,-,40.47,-
O=c1[nH]c2c(c(=O)n1C1CCCCC1)CCC2NCc1ccccc1 (centres undefined),11.18,-0.5848,16.63,-48.37
Cn1cc(Cl)c(C(=O)N2CCC(N3CCc4ccccc4C3)CC2)n1,2.58,-3.896,-6.122,-23.26
COc1cccc(N2CCN(CC[C@H](O)c3ccccc3)CC2=O)c1,3.378,-30.89,35.23,-15.86
CN(Cc1cccc(F)c1)C(=O)CN1CCOC(Cn2cccn2)C1 (centres undefined),1.778,3.422,15.24,-5.489
CS(=O)(=O)CCSc1n[nH]c(-c2ccc3c(c2)CCC3)n1,2.112,4.867,26.76,1.975
O=C(O)C(F)(F)F.[H][C@@]12CCN(C)C[C@@]1([H])[C@H](C(=O)NCc1ccco1)CCO2,-,-,13.14,-
Cc1nc(O)cc(C2CCCN(C(=O)COCc3ccccc3)C2)n1 (centres undefined),-2.07,7.065,7.091,-0.5377
CC1CCN(C(=O)CSCCN2CCOCC2)CC1,3.869,6,-7.653,-4.205
COCc1nc(C(=O)NS(=O)(=O)c2ccc(F)c(F)c2)cs1,-2.472,-3.614,-2.68,-3.059
Cn1cccc1C(=O)N1CCC2(CC1)CC(N1CCOCC1)C2.O=C(O)C(F)(F)F,-,-,12.38,-
COCc1nc(C2CC2)nn1-c1cccc(F)c1,1.675,10.39,-0.1855,-25.95
CSCCCNC(=O)C(c1ccccc1C)N(C)C (centres undefined),2.007,6.186,18.33,-27.59
O=C(Cc1ccccn1)N1CCc2c(O)nc(-c3cnccn3)nc2C1,2.156,10.64,3.095,12.63
Cc1noc([C@@H](C)NCc2cccc(Cl)c2)c1C(=O)O.Cl,-,-,-9.973,-
Cc1cc(C2CCCN(CC(=O)N3CCc4ccccc43)C2)n[nH]1 (centres undefined),0.4249,-3.867,13.88,-24.99

Some entries from above, unchanged:

With NC(=O)NCC1CCCCN1C(=O)c1cccc(C(F)(F)F)c1 (centres undefined) the screen gave PfKRS1: -0.5506%; TcHisRS: 2.273%; Leishmania in macrophages: 4.422%; Pks13 thioesterase: -16.34%.
With Cc1cc(OC(F)F)c(C(=O)N2CCC(N(C)C)CC2)s1 the screen gave PfKRS1: -4.303%; TcHisRS: 0%; Leishmania in macrophages: -9.364%; Pks13 thioesterase: -7.899%.
With O=C(Cc1ccccn1)N1CCc2c(O)nc(-c3cnccn3)nc2C1 the screen gave PfKRS1: 2.156%; TcHisRS: 10.64%; Leishmania in macrophages: 3.095%; Pks13 thioesterase: 12.63%.
With Cc1nn(C)c(C)c1NC(=O)CCn1ncc2ccc(Cl)cc21 the screen gave PfKRS1: 2.123%; TcHisRS: -2.609%; Leishmania in macrophages: 28.79%; Pks13 thioesterase: -11.65%.
With CNC(=O)C1CCN(C(=O)c2cccn2Cc2cccs2)CC1 the screen gave PfKRS1: 1.472%; TcHisRS: -0.7634%; Leishmania in macrophages: -13.19%; Pks13 thioesterase: -1.356%.
With CN(Cc1ccsc1)C(=O)c1ccc2c(c1)NC(=O)CO2 the screen gave PfKRS1: -1.137%; TcHisRS: 5.917%; Leishmania in macrophages: 15.14%; Pks13 thioesterase: -6.723%.
With O=C(c1ccncc1F)N1CCc2ncnc(-c3ccncc3)c2CC1 the screen gave PfKRS1: -4.832%; TcHisRS: 7.182%; Leishmania in macrophages: -55.07%; Pks13 thioesterase: -30.77%.
With COc1cccc(N2CCN(CC[C@H](O)c3ccccc3)CC2=O)c1 the screen gave PfKRS1: 3.378%; TcHisRS: -30.89%; Leishmania in macrophages: 35.23%; Pks13 thioesterase: -15.86%.